According to the supplement of paper PMC8104966:
This is one part of the list. Single values are uncertain here, since repeats match poorly.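 U2OS cells expressing ACE2 were combined with U2OS cells expressing full-length spike, and imaging quantified fusion as the fraction of nuclei displaying both cell types' fluorescent markers. Non-toxic compounds with a fusion z-score under -3, i.e., over three standard deviations below the plate's DMSO wells, are called inhibitory hits.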

Each molecule was assayed on U2OS ACE2 x SARS-CoV-2 spike co-culture (assay: cell-cell fusion (fraction fused) z-score vs plate DMSO control; higher = more fusion). Conditions: 30 µM; 5 h; toxicity class: non-toxic, passed QC.

Row | SMILES | cell-cell fusion (z-score)
1 | CS(=O)(=O)O.O.O=C(O[C@@H]1C[C@@H]2C[C@H]3C[C@H](C1)N2CC3=O)c1c[nH]c2ccccc12 [Dalasetron Mesylate Hydrate] | inactive: 0.523
2 | CC12CC3CC(C)(C1)CC(N)(C3)C2.Cl | inactive: 0.307
3 | CC12CC3CC(C)(C1)CC(N)(C3)C2.Cl [Memantine hydrochloride] | inactive: 3.25
4 | C[C@H](CCC(=O)O)[C@H]1CC[C@H]2[C@@H]3CC[C@@H]4C[C@H](O)CC[C@]4(C)[C@H]3C[C@H](O)[C@]12C [Deoxycholic acid] | inactive: 2.47
5 | O=C1NC(=O)C(c2ccccc2[N+](=O)[O-])=C1Nc1ccc(O)c(Cl)c1 | inactive: 2.21
6 | CC(O)C(=O)[O-].[NH4+] (centres undefined) | inactive: 1.96
7 | CCN(CC)S(=O)(=O)c1ccc(C(=O)O)cc1 | inactive: 1.48
8 | NC[C@H]1O[C@H](O[C@H]2[C@H](O)[C@@H](O[C@H]3O[C@H](CO)[C@@H](O)[C@H](N)[C@H]3O)[C@H](N)C[C@@H]2N)[C@H](N)C[C@@H]1O | inactive: 4.42
9 | NC[C@H]1O[C@H](O[C@H]2[C@H](O)[C@@H](O[C@H]3O[C@H](CO)[C@@H](O)[C@H](N)[C@H]3O)[C@H](N)C[C@@H]2N)[C@H](N)C[C@@H]1O [Tobramycin] | inactive: 2.17
10 | CN(C)CCOc1ccc(/C(=C(/CCCl)c2ccccc2)c2ccccc2)cc1.O=C(O)CC(O)(CC(=O)O)C(=O)O [Toremifene citrate] | inactive: -1.9
11 | COc1ccc(/C=C/C(=O)c2cc(O)ccc2O)cc1 | inactive: 1.21
12 | CC(C)(S)[C@@H](N)C(=O)O [d-penicillamin] | inactive: 0.894
13 | Nc1ncn([C@@H]2O[C@H](CO)[C@@H](O)[C@H]2O)c(=O)n1 [5-Azacytidine] | inactive: 2.19
14 | CO[C@@H]1[C@@H](O[C@@H]2O[C@H](C)[C@@H](O[C@H]3C[C@@](C)(O)[C@H](O)[C@H](C)O3)[C@H](N(C)C)[C@H]2O)[C@@H](CC=O)C[C@@H](C)[C@@H](O[C@H]2CC[C@H](N(C)C)[C@@H](C)O2)/C=C/C=C/C[C@H](C)OC(=O)C[C@H]1O | inactive: 3.62
15 | COc1cc(C(=O)O)cc(OC)c1O | inactive: 2.41
16 | COCCOC(=O)C1=C(C)NC(C)=C(C(=O)OC(C)C)C1c1cccc([N+](=O)[O-])c1 (centres undefined) [Nimodipine] | inactive: 0.905
17 | CC(=O)O[C@]1(C(C)=O)CC[C@H]2[C@@H]3C=C(Cl)C4=CC(=O)[C@@H]5C[C@@H]5[C@]4(C)[C@H]3CC[C@@]21C [Cyproterone acetate] | inactive: 2.73
18 | Nc1nc2c(ncn2COC(CO)CO)c(=O)[nH]1 [Ganciclovir] | inactive: 3.84
19 | COc1ccccc1N1CCN(CCN(C(=O)C2CCCCC2)c2ccccn2)CC1.O=C(O)/C=C\C(=O)O | inactive: 1.82
20 | O=C(O)/C=C\C(=O)O.c1ccc2nc(N3CCNCC3)ccc2c1 | inactive: 4.41
21 | C[C@@H]1CC[C@@]2(OC1)O[C@H]1CC3C4CC[C@H]5C[C@@H](O)CC[C@]5(C)C4CC[C@]3(C)[C@H]1[C@@H]2C (some centres undefined) | inactive: 2.65
22 | Cc1cc(O)cc(C)c1Cl | inactive: 0.227

A stretch taken from the entries so far:
Row | SMILES | cell-cell fusion (z-score)
10 | CN(C)CCOc1ccc(/C(=C(/CCCl)c2ccccc2)c2ccccc2)cc1.O=C(O)CC(O)(CC(=O)O)C(=O)O [Toremifene citrate] | inactive: -1.9
11 | COc1ccc(/C=C/C(=O)c2cc(O)ccc2O)cc1 | inactive: 1.21

(cont.)

Row | SMILES | cell-cell fusion (z-score)
23 | N[C@@H](Cc1ccc(O)c(O)c1)C(=O)O [Levodopa] | inactive: 3.01
24 | CCn1cnc2c(Nc3cccc(Cl)c3)nc(N[C@@H]3CCCC[C@@H]3N)nc21.Cl | inactive: 1.56
25 | COc1cc2nc(N(C)CCCNC(=O)C3CCCO3)nc(N)c2cc1OC.Cl (centres undefined) [Alfuzosin hydrochloride] | inactive: 1.66
26 | O=C(O)Cc1c[nH]c2ccc(O)cc12 [5-Hydroxyindolacetic acid] | inactive: 1.05
27 | C=C[C@@](C)(O)CCC1C(=C)C[C@H](OC(C)=O)C2C(C)(C)CCCC12C (some centres undefined) | inactive: 2.04
28 | CCC[C@@H]1C[C@@H](C(=O)N[C@H]([C@H]2O[C@H](SC)[C@H](O)[C@@H](O)[C@H]2O)[C@H](C)O)N(C)C1.Cl | inactive: -1.11
29 | CC(C)(O)[C@@H]1[C@H]2OC(=O)[C@@H]1[C@]1(O)C[C@H]3O[C@]34C(=O)O[C@H]2[C@]14C | inactive: 1.4
30 | c1ccc(C(NCc2cccnc2)(c2ccccc2)c2ccccc2)cc1 | inactive: 3.7
31 | COc1ccc(CNC(=O)Nc2ncc([N+](=O)[O-])s2)cc1 | inactive: 0.384
32 | CN(C)c1ccccc1CN1CCCN(Cc2ccccc2N(C)C)C1c1ccncc1 | inactive: 3.1
33 | CNC(=O)[C@H]1O[C@@H](n2cnc3c(NCc4ccc(N)cc4)ncnc32)C(O)[C@H]1O (some centres undefined) | inactive: 0.856
34 | NC(=O)COc1c(F)cc(SCCNS(=O)(=O)c2ccccc2)cc1F | inactive: 0.0767
35 | O=c1cc(-c2ccccc2)oc2c(O)c(O)ccc12 | inactive: 1.93
36 | CC(C)(C)NC(=O)N[C@H](C(=O)N1C[C@H]2[C@@H]([C@H]1C(=O)NC(CC1CCC1)C(=O)C(N)=O)C2(C)C)C(C)(C)C (some centres undefined) [Boceprevir] | inactive: 0.875
37 | CO[C@H]1[C@H](O)[C@@H](O[C@H]2CC[C@]3(C=O)C4CC[C@]5(C)[C@@H](C6=CC(=O)OC6)CC[C@]5(O)C4CC[C@@H]3C2)O[C@@H](C)[C@@H]1O (some centres undefined) | inactive: 1.47
38 | Cc1ncc([N+](=O)[O-])n1CC(O)CCl (centres undefined) | inactive: 1.22
39 | O=S(=O)([O-])c1cc(N=C=S)ccc1/C=C/c1ccc(N=C=S)cc1S(=O)(=O)[O-].[Na+].[Na+] | inactive: 0.793
40 | O=C1OCCN1/N=C/c1ccc([N+](=O)[O-])o1 | inactive: 0.847
41 | CC(=O)C(C)=O [2,3-Butanedione] | inactive: 2.57
42 | O=C(O)c1ccccc1 [Benzoic acid] | inactive: 1.92
43 | COC1O[C@@H]2O[C@]3(C)CC[C@H]4[C@H](C)CC[C@@H]([C@H]1C)[C@@]24OO3 (some centres undefined) | inactive: 3.38
44 | O=C(/C=C/c1ccc(O)cc1)c1ccccc1O | inactive: -0.575
